These results are taken from publication PMC11842806, “Molecular basis of foreign DNA recognition by BREX anti-phage immunity system” (Nature Communications, 2025).

For some assays here: A negative result means that nothing was seen under these conditions. Where a protein sequence is shown, tags need not be part of it. The comparison behind a weaker result is the experiment's own reference, which may not be listed here. For some assays here: For at least one entry, the source does not settle the construct or the ends of the probe.

Data set [1] deals with T1, BrxX (PglX) (Escherichia coli HS) (UniProt P0DUF9).
T1 sequence (looked up): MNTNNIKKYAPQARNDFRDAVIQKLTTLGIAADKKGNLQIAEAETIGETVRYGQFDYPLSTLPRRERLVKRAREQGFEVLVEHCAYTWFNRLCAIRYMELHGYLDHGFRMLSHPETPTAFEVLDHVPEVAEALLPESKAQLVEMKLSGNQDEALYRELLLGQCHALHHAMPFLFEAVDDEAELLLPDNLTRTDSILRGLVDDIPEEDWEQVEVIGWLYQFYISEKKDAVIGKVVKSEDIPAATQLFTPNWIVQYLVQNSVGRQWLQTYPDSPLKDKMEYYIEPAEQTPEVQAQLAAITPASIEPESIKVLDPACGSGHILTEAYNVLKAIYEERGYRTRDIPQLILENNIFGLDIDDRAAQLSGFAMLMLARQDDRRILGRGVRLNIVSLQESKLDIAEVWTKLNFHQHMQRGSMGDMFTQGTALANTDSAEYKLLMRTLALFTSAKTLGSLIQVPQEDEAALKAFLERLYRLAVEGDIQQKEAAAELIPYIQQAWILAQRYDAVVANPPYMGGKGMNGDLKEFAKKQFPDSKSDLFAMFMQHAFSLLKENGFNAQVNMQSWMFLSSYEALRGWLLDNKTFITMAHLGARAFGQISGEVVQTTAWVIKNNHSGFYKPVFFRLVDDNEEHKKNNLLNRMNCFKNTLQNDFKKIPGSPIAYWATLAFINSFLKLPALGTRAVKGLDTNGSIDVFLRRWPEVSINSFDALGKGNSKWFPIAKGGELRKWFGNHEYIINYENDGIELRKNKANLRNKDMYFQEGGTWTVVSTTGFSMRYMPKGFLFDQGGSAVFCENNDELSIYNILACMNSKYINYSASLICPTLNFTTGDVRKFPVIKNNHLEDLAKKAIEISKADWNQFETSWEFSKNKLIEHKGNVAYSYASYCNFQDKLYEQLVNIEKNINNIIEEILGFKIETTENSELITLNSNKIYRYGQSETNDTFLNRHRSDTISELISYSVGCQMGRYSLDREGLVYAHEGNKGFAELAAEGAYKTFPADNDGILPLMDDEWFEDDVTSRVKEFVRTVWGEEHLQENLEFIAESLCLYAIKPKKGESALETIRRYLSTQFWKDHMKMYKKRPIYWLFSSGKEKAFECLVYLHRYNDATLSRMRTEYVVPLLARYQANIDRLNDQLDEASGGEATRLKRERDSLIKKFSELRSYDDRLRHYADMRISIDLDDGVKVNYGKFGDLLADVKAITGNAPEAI
In words: BLI. The note with it: BLI: 20 mM Tris-HCl pH 8.0, 100 mM NaCl, 0.05 mg/mL BSA, 0.02% Tween-20, +/-0.5 mM SAM, 30 C, recombinant protein, residues 1-1205, protein details: N-His6, label: 5'-biotin on strand 1.

Data set [2] deals with T1, BrxX (PglX) (Escherichia coli HS). The experiment in a line: EMSA. To be noted: EMSA: 20 nM Cy5-DNA, 0.5x TBE pH 8.0, 35 mM NaCl, 5% glycerol, +/-0.5 mM SAM or SAH, 30 min, room temperature, recombinant protein, residues 1-1205, protein details: N-His6. (In general: A gel shift assay detects complexes by their altered migration in electrophoresis.)
Data set [3] has as its target T2, BrxL (Escherichia coli HS) (UniProt P0DUG1).
T2 sequence (looked up, limits assumed): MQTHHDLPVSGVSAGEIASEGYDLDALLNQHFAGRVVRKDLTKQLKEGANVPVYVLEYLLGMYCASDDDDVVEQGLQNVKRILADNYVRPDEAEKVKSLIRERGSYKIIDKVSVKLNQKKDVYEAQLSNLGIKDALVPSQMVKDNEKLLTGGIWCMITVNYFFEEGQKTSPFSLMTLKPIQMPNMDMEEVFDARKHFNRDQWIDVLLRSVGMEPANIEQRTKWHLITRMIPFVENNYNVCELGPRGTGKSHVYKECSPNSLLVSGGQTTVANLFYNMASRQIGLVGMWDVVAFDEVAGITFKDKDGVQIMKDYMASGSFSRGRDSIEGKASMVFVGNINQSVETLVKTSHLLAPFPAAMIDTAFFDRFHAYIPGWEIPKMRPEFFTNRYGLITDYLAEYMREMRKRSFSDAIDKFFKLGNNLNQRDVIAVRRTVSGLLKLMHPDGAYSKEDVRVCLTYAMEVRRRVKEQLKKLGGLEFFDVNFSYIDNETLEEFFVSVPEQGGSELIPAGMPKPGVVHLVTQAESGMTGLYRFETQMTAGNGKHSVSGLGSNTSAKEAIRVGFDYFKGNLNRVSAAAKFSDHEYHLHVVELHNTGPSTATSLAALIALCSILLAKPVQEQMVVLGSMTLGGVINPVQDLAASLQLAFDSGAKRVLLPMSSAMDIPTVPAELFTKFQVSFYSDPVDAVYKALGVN
The experiment in a line: EMSA. To be noted: bound, affinity lower than previously reported; EMSA: 20 nM Cy5-DNA, 0.5x TBE pH 8.0, 35 mM NaCl, 5% glycerol, +/-0.5 mM SAM or SAH, 30 min, room temperature; recombinant protein; protein details: N-His6; label: 5'-Cy5 on strand 1.

The mark [4] stands for this setting: with and without 0.5 mM SAM, no clear site preference, label: 5'-Cy5, single-stranded DNA.
Setting [5] is: with and without 0.5 mM SAM, label: 5'-Cy5 on strand 1.

On to “TCAGTAGTCAAGTCAGTCCCCCCGTCAGGACAGGAGTCAG (double strand) [40 bp polyC, biotin]”, for which the binding result in data set [1] (SAM, heterogeneous binding, no accurate Kd) is “binds more weakly”.

Regarding “TCAGTAGTCAAGTCAGTGGTAAGGTCAGGACAGGAGTCAG (double strand) [40 bp BREX]”, the binding result in data set [2] (1.5-fold excess Ocr dimer over BrxX, added after DNA, DNA released, label: 5'-Cy5 on strand 1) was “no binding”; in data set [2] (equimolar Ocr dimer preincubated with BrxX, label: 5'-Cy5 on strand 1), “no binding”. Regarding “AGTCAGTAGTGAGGTCAGGAATGAGTCAGTCTCACTGTCAGGA [43 nt ssDNA scrambled]”, the binding result in data set [2] (setting [4]) was “binds”. With “AGTCAGTGGTAAGGTCAGGA (double strand) [20 bp BREX]”, the binding result in data set [2] (setting [5]) is “binds more weakly”.

Broadly, the Kd is the equilibrium constant for the complex coming apart. For the sequence “AGTCAGTAGTGAGGTCAGGAATGAGTCAGTCTCACTGTCAGGA (double strand) [43 bp scrambled]”, in data set [3], the binding result is “binds more weakly”. The Kd in data set [2] (no cofactor, text: low-affinity non-specific binding, label: 5'-Cy5 on strand 1) is over 1 µM. On to “TCAGTAGTCAAGTCAGTGGTAAGGTCAGGACAGGAGTCAG (double strand) [40 bp methylated BREX]”, for which the binding result in data set [2] (0.5 mM SAH, N6-methyladenine at fifth base of GGTAAG (strand 1 position 22), label: 5'-Cy5 on strand 1) is listed as “binds more weakly”; in data set [2] (0.5 mM SAM, N6-methyladenine at fifth base of GGTAAG (strand 1 position 22), label: 5'-Cy5 on strand 1), “binds more weakly”; in data set [2] (no cofactor, N6-methyladenine at fifth base of GGTAAG (strand 1 position 22), label: 5'-Cy5 on strand 1), “binds more weakly”. Consider “AGTCAGTCCCCCCGTCAGGA (double strand) [20 bp polyC, biotin]”, for which the binding result in data set [1] (Kd only in figure) is given as “binds more weakly”. “AGTCAGTGGTAAGGTCAGGAATGAGTCAGTTGGCAAGTCAGGA [43 nt ssDNA, 1 BREX site]”: in data set [2] (setting [4]), the binding result is on record as “binds”. “AGTCAGTGGTAAGGTCAGGAATGAGTCAGTTGGCAAGTCAGGA (double strand) [43 bp, 1 BREX site]”: the binding result in data set [3] is reported as “binds more weakly”. For “AGTCAAGTCAGTGGTAAGGTCAGGACAGGA (double strand) [30 bp BREX]”, the binding result in data set [2] (setting [5]) is reported as “binds more weakly”.
